Measurements: the supplement of paper PMC2577665
± gives the standard deviation of the averaged measurements. Single values of this set are uncertain.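 Each test well overexpressed one poorly characterized human cDNA in ERalpha-negative HeLa cells together with transfected ERalpha and a reporter carrying two estrogen response elements. A gene counted as a repressor hit if it cut the signal to the level of the BRCA1 positive control (about 0.6 of empty vector) or lower.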

system: ERE-luciferase reporter with exogenous ERalpha in HeLa cells; experiment: relative ERE luciferase activity (Firefly/Renilla) upon cDNA overexpression, relative to empty vector (fold of empty vector); higher = stronger ERalpha transactivation (less repression); settings: 17beta-estradiol: 10 nM; 12 h

In order of falling “relative ERE luciferase activity” value:
1. MAAPSPGPREVLAPSPEAGCRAVTSSRRGLLWRLRDKQSRLGLFEISPGHELHGMTCMMQAGLWAATQVSMDHPPTGPPSRDDFSEVLTQVHEGFELGTLAGPAFAWLRRSLGLAEEDYQAALGPGGPYLQFLSTSKSKASFFLSHDQRFFLKTQGRREVQALLAHLPRYVQHLQRHPHSLLARLLGVHSLRVDRGKKTYFIVMQSVFYPAGRISERYDIKGCEVSRWVDPAPEGSPLVLVLKDLNFQGKTINLGPQRSWFLRQMELDTTFLRELNVLDYSLLIAFQRLHEDERGPGSSLIFRTARSVQGAQSPEESRAQNRRLLPDAPNALHILDGPEQRYFLGVVDLATVYGLRKRLEHLWKTLRYPGRTFSTVSPARYARRLCQWVEAHTE [PIP5KL1]  2.55
2. MAGAAEDARALFRAGVCAALEAWPALQIAVENGFGGVHSQEKAKWLGGAVEDYFMRNADLELDEVEDFLGELLTNEFDTVVEDGSLPQVSQQLQTMFHHFQRGDGAALREMASCITQRKCKVTATALKTARETDEDEDDVDSVEEMEVTATNDGAATDGVCPQPEPSDPDAQTIKEEDIVEDGWTIVRRKK [TSR2]  2.27
3. GJB6  2.22
4. MAGPESDAQYQFTGIKKYFNSYTLTGRMNCVLATYGSIALIVLYFKLRSKKTPAVKAT [USMG5]  1.23
5. CBWD1  1.22
6. HMGN3  1.21 ± 0.083
7. MAESLRSPRRSLYKLVGSPPWKEAFRQRCLERMRNSRDRLLNRYRQAGSSGPGNSQNSFLVQEVMEEEWNALQSVENCPEDLAQLEELIDMAVLEEIQQELINQEQSIISEYEKSLQFDEKCLSIMLAEWEANPLICPVCTKYNLRITSGVVVCQCGLSIPSHSSELTEQKLRACLEGSINEHSAHCPHTPEFSVTGGTEEKSSLLMSCLACDTWAVIL [RPAIN]  1.18 ± 0.26
8. CLIC2  1.17
9. MAHRLQIRLLTWDVKDTLLRLRHPLGEAYATKARAHGLEVEPSALEQGFRQAYRAQSHSFPNYGLSHGLTSRQWWLDVVLQTFHLAGVQDAQAVAPIAEQLYKDFSHPCTWQVLDGAEDTLRECRTRGLRLAVISNFDRRLEGILGGLGLREHFDFVLTSEAAGWPKPDPRIFQEALRLAHMEPVVAAHVGDNYLCDYQGPRAVGMHSFLVVGPQALDPVVRDSVPKEHILPSLAHLLPALDCLEGSTPGL [HDHD3]  1.16
10. MAESEDRSLRIVLVGKTGSGKSATANTILGEEIFDSRIAAQAVTKNCQKASREWQGRDLLVVDTPGLFDTKESLDTTCKEISRCIISSCPGPHAIVLVLLLGRYTEEEQKTVALIKAVFGKSAMKHMVILFTRKEELEGQSFHDFIADADVGLKSIVKECGNRCCAFSNSKKTSKAEKESQVQELVELIEKMVQCNEGAYFSDDIYKDTEERLKQREEVLRKIYTDQLNEEIKLVEEDKHKSEEEKEKEIKLLKLKYDEKIKNIREEAERNIFKDVFNRIWKMLSEIWHRFLSKCKFYSS [GIMAP7]  1.14
11. C12orf31  1.13
12. C8orf32  1.11 ± 0.039
13. MAALGHLAGEAAAAPGPGTPCASRGARLPGPVSSARNPSTVCLCPEQPTCSNADSRAHPLGDEGGTASKKQKNKKKTRNRASVANGGEKASEKLAPEEVPLSAEAQAQQLAQELAWCVEQLELGLKRQKPTPKQKEQAIGAIRTLRSKRTPLPRKRQLMHSLFGDYRAQMEAEWREALRALRAAAYSAQVQPVDGATRKKSQRVCRPRSIWRAKATLDMPDEEFRFNFF [C8orf33]  1.1
14. MAALIAENFRFLSLFFKSKDVMIFNGLVALGTVGSQELFSVVAFHCPCSPARNYLYGLAAIGVPALVLFIIGIILNNHTWNLVAECQHRRTKNCSAAPTFLLLSSILGRAAVAPVTWSVISLLRGEAYVCALSEFVDPSSLTAREEHFPSAHATEILARFPCKENPDNLSDFREEVSRRLRYESQLFGWLLIGVVAILVFLTKCLKHYCSPLSYRQEAYWAQYRANEDQLFQRTAEVHSRVLAANNVRRFFGFVALNKDDEELIANFPVEGTQPRPQWNAITGVYLYRENQGLPLYSRLHKWAQGLAGNGAAPDNVEMALLPS [FAM26B]  1.09
15. MAAGTAAALAFLSQESRTRAGGVGGLRVPAPVTMDSFFFGCELSGHTRSFTFKVEEEDDAEHVLALTMLCLTEGAKDECNVVEVVARNHDHQEIAVPVANLKLSCQPMLSLDDFQLQPPVTFRLKSGSGPVRITGRHQIVTMSNDVSEEESEEEEEDSDEEEVELCPILPAKKQGGRP [NPM3]  1.08
16. BAHCC1  1.06
17. MAACRALKAVLVDLSGTLHIEDAAVPGAQEALKRLRGASVIIRFVTNTTKESKQDLLERLRKLEFDISEDEIFTSLTAARSLLERKQVRPMLLVDDRALPDFKGIQTSDPNAVVMGLAPEHFHYQILNQAFRLLLDGAPLIAIHKARYYKRKDGLALGPGPFVTALEYATDTKATVVGKPEKTFFLEALRGTGCEPEEAVMIGDDCRDDVGGAQDVGMLGILVKTGKYRASDEEKINPPPYLTCESFPHAVDHILQHLL [HDHD2]  1.06
18. MAASTDMAGLEESFRKFAIHGDPKASGQEMNGKNWAKLCKDCKVADGKSVTGTDVDIVFSKVKGKSARVINYEEFKKALEELATKRFKGKSKEEAFDAICQLVAGKEPANVGVTKAKTGGAVDRLTDTSRYTGSHKERFDESGKGKGIAGRQDILDDSGYVSAYKNAGTYDAKVKK [TPPP3]  1.06
19. MAEGETESPGPKKCGPYISSVTSQSVNLMIRGVVLFFIGVFLALVLNLLQIQRNVTLFPPDVIASIFSSAWWVPPCCGTASAVIGLLYPCIDRHLGEPHKFKREWSSVMRCVAVFVGINHASAKVDFDNNIQLSLTLAALSIGLWWTFDRSRSGFGLGVGIAFLATVVTQLLVYNGVYQYTSPDFLYVRSWLPCIFFAGGITMGNIGRQLAMYECKVIAEKSHQE [INSIG2]  1.05
20. MAGPLWRTAAFVQRHRTGLLVGSCAGLFGVPISYHLFPDPVVQWLYQYWPQGQPAPLPPQLQSLFQEVLQDIGVPSGHCYKPFTTFTFQPVSAGFPRLPAGAVVGIPASFLGDLVINTNHPVVIHGHTVDWRSPAGARLRASLTLSREAQKFALAREVVYLESSTTAVHALLAPACLAGTWALGVGAKYTLGLHAGPMNLRAAFSLVAAVAGFVAYAFSQDSLTHAVESWLDRRTASLSAAYACGGVEFYEKLLSGNLALRSLLGKDGEKLYTPSGNIVPRHLFRIKHLPYTTRRDSVLQMWRGMLNPGRS [TMEM177]  1.04
21. MAGPWTFTLLCGLLAATLIQATLSPTAVLILGPKVIKEKLTQELKDHNATSILQQLPLLSAMREKPAGGIPVLGSLVNTVLKHIIWLKVITANILQLQVKPSANDQELLVKIPLDMVAGFNTPLVKTIVEFHMTTEAQATIRMDTSASGPTRLVLSDCATSHGSLRIQLLHKLSFLVNALAKQVMNLLVPSLPNLVKNQLCPVIEASFNGMYADLLQLVKVPISLSIDRLEFDLLYPAIKGDTIQLYLGAKLLDSQGKVTKWFNNSAASLTMPTLDNIPFSLIVSQDVVKAAVAAVLSPEEFMVLLDSVLPESAHRLKSSIGLINEKAADKLGSTQIVKILTQDTPEFFIDQGHAKVAQLIVLEVFPSSEALRPLFTLGIEASSEAQFYTKGDQLILNLNNISSDRIQLMNSGIGWFQPDVLKNIITEIIHSILLPNQNGKLRSGVPVSLVKALGFEAAESSLTKDALVLTPASLWKPSSPVSQ [C20orf114]  1.03
22. MAATSGTDEPVSGELVSVAHALSLPAESYGNDPDIEMAWAMRAMQHAEVYYKLISSVDPQFLKLTKVDDQIYSEFRKNFETLRIDVLDPEELKSESAKEKWRPFCLKFNGIVEDFNYGTLLRLDCSQGYTEENTIFAPRIQFFAIEIARNREGYNKAVYISVQDKEGEKGVNNGGEKRADSGEEENTKNGGEKGADSGEEKEEGINREDKTDKGGEKGKEADKEINKSGEKAM [CXorf26]  1.02
23. MAAYKLVLIRHGESAWNLENRFSGWYDADLSPAGHEEAKRGGQALRDAGYEFDICFTSVQKRAIRTLWTVLDAIDQMWLPVVRTWRLNERHYGGLTGLNKAETAAKHGEAQVKIWRRSYDVPPPPMEPDHPFYSNISKDRRYADLTEDQLPSCESLKDTIARALPFWNEEIVPQIKEGKRVLIAAHGNSLRGIVKHLEGLSEEAIMELNLPTGIPIVYELDKNLKPIKPMQFLGDEETVRKAMEAVAAQGKAKK [PGAM1]  1.01
24. MAGGYGVMGDDGSIDYTVHEAWNEATNVYLIVILVSFGLFMYAKRNKRRIMRIFSVPPTEETLSEPNFYDTISKIRLRQQLEMYSISRKYDYQQPQNQADSVQLSLE [C8orf40]  1
25. MAKSKTKHRLCSQESSVSALLASCTLSGSNSSNSDGSFHYKDKLYRSASQALQAYIDDFDLGQIYPGASTGKINIDEDFTNMSQFCNYIYKPNNAFENLDHKKHSNFISCRRHTVNDIDSMSLTTDDLLRLPADGSFSYTYVGPSHRTSKKNKKCRGRLGSLDIEKNPHFQGPYTSMGKDNFVTPVIRSNINGKQCGDKIELLILKAKRNLEQCTEELPKSMKKDDSPCSLDKLEADRSWENIPVTFKSPVPVNSDDSPQQTSRAKSAKGVLEDFLNNDNQSCTLSGGKHHGPVEALKQMLFNLQAVQERFNQNKTTDPKEEIKQVSEDDFSKLQLKESMIPITRSLQKALHHLSRLRDLVDDTNGERSPKM [C18orf54]  1 ± 0.15
26. MADDLGDEWWENQPTGAGSSPEASDGEGEGDTEVMQQETVPVPVPSEKTKQPKECFLIQPKERKENTTKTRKRRKKKITDVLAKSEPKPGLPEDLQKLMKDYYSSRRLVIELEELNLPDSCFLKANDLTHSLSSYLKEICPKWVKLRKNHSEKKSVLMLIICSSAVRALELIRSMTAFRGDGKVIKLFAKHIKVQAQVKLLEKRVVHLGVGTPGRIKELVKQGGLNLSPLKFLVFDWNWRDQKLRRMMDIPEIRKEVFELLEMGVLSLCKSESLKLGLF [C3orf26]  0.97
27. MAGLKRRASQVWPEEHGEQEHGLYSLHRMFDIVGTHLTHRDVRVLSFLFVDVIDDHERGLIRNGRDFLLALERQGRCDESNFRQVLQLLRIITRHDLLPYVTLKRRRAVCPDLVDKYLEETSIRYVTPRALSDPEPRPPQPSKTVPPHYPVVCCPTSGPQMCSKRPARGRATLGSQRKRRKSVTPDPKEKQTCDIRLRVRAEYCQHETALQGNVFSNKQDPLERQFERFNQANTILKSRDLGSIICDIKFSELTYLDAFWRDYINGSLLEALKGVFITDSLKQAVGHEAIKLLVNVDEEDYELGRQKLLRNLMLQALP [DEDD]  0.884
28. MAGAAPTTAFGQAVIGPPGSGKTTYCLGMSEFLRALGRRVAVVNLDPANEGLPYECAVDVGELVGLGDVMDALRLGPNGGLLYCMEYLEANLDWLRAKLDPLRGHYFLFDCPGQVELCTHHGALRSIFSQMAQWDLRLTAVHLVDSHYCTDPAKFISVLCTSLATMLHVELPHINLLSKMDLIEHYGKLAFNLDYYTEVLDLSYLLDHLASDPFFRHYRQLNEKLVQLIEDYSLVSFIPLNIQDKESIQRVLQAVDKANGYCFRAQEQRSLEAMMSAAMGADFHFSSTLGIQEKYLAPSNQSVEQEAMQL [ATPBD1B]  0.834
29. MADHSFSDGVPSDSVEAAKNASNTEKLTDQVMQNPRVLAALQERLDNVPHTPSSYIETLPKAVKRRINALKQLQVRCAHIEAKFYEEVHDLERKYAALYQPLFDKRREFITGDVEPTDAESEWHSENEEEEKLAGDMKSKVVVTEKAAATAEEPDPKGIPEFWFTIFRNVDMLSELVQEYDEPILKHLQDIKVKFSDPGQPMSFVLEFHFEPNDYFTNSVLTKTYKMKSEPDKADPFSFEGPEIVDCDGCTIDWKKGKNVTVKTIKKKQKHKGRGTVRTITKQVPNESFFNFFNPLKASGDGESLDEDSEFTLASDFEIGHFFRERIVPRAVLYFTGEAIEDDDNFEEGEEGEEEELEGDEEGEDEDDAEINPKV [NAP1L4]  0.817
